# Data: PubChem BioAssay AID1259415 (National Center for Advancing Translational Sciences (NCATS), 2018)
# Screen size: about 410,000 compounds; about 18,000 (4.4%) were called active. Inconclusive means that the source gave no clear call. Such entries were picked first, then a sample of the others. Rule as the data show it: active = activity change below about -60%; inconclusive = no clear call, values can overlap the other calls; inactive = above about -39%.
# Assay: qHTS Assay for inhibitors of the human cytomegalovirus (HCMV)
# Settings: HFF cells, HCMV-luciferase reporter, 72 h; at 57.5 µM; stronger effect = lower value
# Procedure, shortened: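 Compounds were evaluated in HFFs infected with an HCMV luciferase reporter virus (MOI 1 PFU/cell). Luciferase in lysates collected 72 h post infection served as the replication measure.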
# % is scaled to controls: 0 for no effect and ±100 for the full control effect.
row,Structure (SMILES),"activity change, negative = inhibition"
1,CCC(=O)OCC(=O)C1(OC(=O)CC)[C@H](C)C[C@H]2[C@H]3[C@H]([C@@H](O)C[C@@]21C)[C@@]1(C)C=CC(=O)C=C1C[C@H]3Cl (stereo not given in full),inactive: 54.8%
2,COC(=O)c1cnc(NC(=O)C2(C)CCN2C(=O)C(C)C)s1 (stereo not given),inconclusive: -57.6%
3,O=C(COC(=O)c1ccc(Br)o1)Nc1ncc(Cl)cc1Cl,inconclusive: -49.7%
4,Nc1ccc2c(c1)OC1(CCCCC1)O2,inconclusive: -53.9%
5,CCc1nnc(NC(=O)c2ccc(Cl)c(S(=O)(=O)N3CCc4ccccc4C3)c2)s1,inconclusive: -51%
6,CCOC(=O)N1CCN(C(=O)c2cc(COc3ccc4ncccc4c3)on2)CC1,active: -74%
7,Cc1ccc(-c2cn(-c3ccc(SC(F)F)cc3)c3[n+]2CCC3)cc1,active: -97.7%
8,COc1ccc2nc(C)cc(Sc3nc4ccccc4s3)c2c1,active: -98.6%
9,Cc1cccc(C(=O)N[C@H](C(=O)Nc2nc3ccccc3[nH]2)C(C)C)c1,active: -81.4%
10,Cc1nc2ccc(S(=O)(=O)N(C)CC(=O)Nc3ccc(Br)c(C)c3)cc2s1,inconclusive: -47.8%
11,CCOc1ccc(C2CC(=O)c3c([nH]c(C(=O)OCc4ccccc4)c3C)C2)cc1 (stereo not given),active: -87.7%
12,COC(=O)CNC(c1ccccc1)c1cc(Br)ccc1N (stereo not given),inactive: 10.4%
13,CC1CC(c2ccccc2)NS(=O)(=O)O1 (stereo not given),inconclusive: -54.8%
14,O=C(CCl)NCc1c(Cl)cccc1-n1cccc1,active: -98.4%
15,COc1ccc(OC)c(C(=O)NC2CC(C)(C)Cc3c2cnn3-c2ccccc2)c1 (stereo not given),active: -76.9%
16,O=C(Nc1ccccn1)c1cc(-n2cnnc2)ccc1Cl,inconclusive: -43.3%
17,Cc1ccc(-n2cc(CN(C)Cc3ncc[nH]3)c(-c3cccc(C)c3)n2)cc1,inconclusive: -46.8%
18,Nc1cc(-c2ccc(Br)cc2)nc2cc(-c3ccccc3)nn12,inactive: -3.17%
19,O=C(CSCC(=O)N1CCCc2ccccc21)Nc1nc(-c2ccccc2)cs1,inactive: 42.7%
20,Cc1ccc(C(C)C)cc1-n1nnc(-c2cccc(Cc3ccc4ccccc4c3)c2)c1C(C)O (stereo not given),inconclusive: -40%
21,CC(NC(=O)COC(=O)C1(C)CC1(Cl)Cl)c1ccccc1 (stereo not given),inactive: -9.06%
22,CCCc1cc(-c2n[nH]c(=S)n2CC(C)C)cs1,inconclusive: -53.1%
23,Cc1csc(NC(=O)CSc2nnc(-c3ccco3)n2C)n1,inactive: 10.8%
24,Cc1c(C(=O)NCc2ccc3c(c2)OCO3)sc(=O)n1Cc1ccc(-c2ccccc2)cc1,active: -67.2%
25,Cc1cccc(CC2C(=O)Nc3ccccc32)c1 (stereo not given),active: -70%
26,S=C1NCCOCCNC(=S)NCCOCCOCCOCCN1,inactive: -1.96%
27,CC(=O)N/C(=C\c1ccccc1)C(=O)OCc1ccc(F)cc1,inconclusive: -48.6%
28,CCOC(=O)c1c(NC(=O)c2ccc(S(=O)(=O)N(CCOC)CCOC)cc2)sc2c1CC(C)(C)NC2(C)C,inconclusive: -54.5%

# 17 compounds from above, ordered by SMILES length, smallest number first:
row,Structure (SMILES),"activity change, negative = inhibition"
25,Cc1cccc(CC2C(=O)Nc3ccccc32)c1 (stereo not given),active: -70%
26,S=C1NCCOCCNC(=S)NCCOCCOCCOCCN1,inactive: -1.96%
22,CCCc1cc(-c2n[nH]c(=S)n2CC(C)C)cs1,inconclusive: -53.1%
16,O=C(Nc1ccccn1)c1cc(-n2cnnc2)ccc1Cl,inconclusive: -43.3%
3,O=C(COC(=O)c1ccc(Br)o1)Nc1ncc(Cl)cc1Cl,inconclusive: -49.7%
21,CC(NC(=O)COC(=O)C1(C)CC1(Cl)Cl)c1ccccc1 (stereo not given),inactive: -9.06%
18,Nc1cc(-c2ccc(Br)cc2)nc2cc(-c3ccccc3)nn12,inactive: -3.17%
19,O=C(CSCC(=O)N1CCCc2ccccc21)Nc1nc(-c2ccccc2)cs1,inactive: 42.7%
6,CCOC(=O)N1CCN(C(=O)c2cc(COc3ccc4ncccc4c3)on2)CC1,active: -74%
15,COc1ccc(OC)c(C(=O)NC2CC(C)(C)Cc3c2cnn3-c2ccccc2)c1 (stereo not given),active: -76.9%
9,Cc1cccc(C(=O)N[C@H](C(=O)Nc2nc3ccccc3[nH]2)C(C)C)c1,active: -81.4%
11,CCOc1ccc(C2CC(=O)c3c([nH]c(C(=O)OCc4ccccc4)c3C)C2)cc1 (stereo not given),active: -87.7%
5,CCc1nnc(NC(=O)c2ccc(Cl)c(S(=O)(=O)N3CCc4ccccc4C3)c2)s1,inconclusive: -51%
24,Cc1c(C(=O)NCc2ccc3c(c2)OCO3)sc(=O)n1Cc1ccc(-c2ccccc2)cc1,active: -67.2%
20,Cc1ccc(C(C)C)cc1-n1nnc(-c2cccc(Cc3ccc4ccccc4c3)c2)c1C(C)O (stereo not given),inconclusive: -40%
28,CCOC(=O)c1c(NC(=O)c2ccc(S(=O)(=O)N(CCOC)CCOC)cc2)sc2c1CC(C)(C)NC2(C)C,inconclusive: -54.5%
1,CCC(=O)OCC(=O)C1(OC(=O)CC)[C@H](C)C[C@H]2[C@H]3[C@H]([C@@H](O)C[C@@]21C)[C@@]1(C)C=CC(=O)C=C1C[C@H]3Cl (stereo not given in full),inactive: 54.8%

# Following part:

row,Structure (SMILES),"activity change, negative = inhibition"
1,CCN(CC)c1cc2c(cc1F)c(=O)c(S(=O)(=O)c1cc(C)ccc1C)cn2Cc1ccccc1,inconclusive: -55.2%
2,Cc1noc(C)c1NC(=O)N(C)C[C@H]1Oc2ccc(NS(=O)(=O)c3c(C)noc3C)cc2C(=O)N([C@H](C)CO)C[C@@H]1C,inconclusive: -44.1%
3,O=C(NCc1cccs1)c1nc2c(nnn2Cc2ccccc2Cl)c(=O)[nH]1,active: -102%
4,CCOc1ccc(S(=O)(=O)Nc2cccc(OC)c2)cc1,inconclusive: -55.1%
5,Cc1cc(C)c(S(=O)(=O)NCc2cn3ccccc3n2)c(C)c1,inactive: -34.5%
6,COc1ccc(-c2nn(C)c(=O)c3ccccc23)cc1NC(=O)COc1ccc(C)cc1,inconclusive: -52%
7,CC1=NN(c2nc(-c3ccc(Cl)cc3)cs2)C(=O)C1,inconclusive: -49.1%
8,O=C(CNC(=O)c1cccs1)N/N=C/c1ccco1,inconclusive: -40.6%
9,O=C(Cc1ccccc1)Nc1ccccc1N1CCN(c2ccccc2)CC1,inconclusive: -50.6%
10,COc1cc(NC(=O)CSc2nc3nc(C)c(Cc4ccc(C)cc4)c(C)n3n2)cc(OC)c1,inactive: 15.4%
11,COc1ccc(N(CC(=O)N2CCN(Cc3ccccc3)CC2)S(=O)(=O)c2ccccc2)cc1,inconclusive: -56.8%
12,Cc1ccc(CN2CCC(c3cc(-c4ccc(Cl)cc4)n[nH]3)CC2)cc1,active: -98.7%
13,Cc1ccc(NC(=O)CN(C)S(=O)(=O)c2ccc3nc(C)sc3c2)c(C)c1,inconclusive: -43.8%
14,CN(C(=O)CSc1ncnc2sc(-c3ccccc3)cc12)C1CCS(=O)(=O)C1 (stereo not given),inconclusive: -59.3%
15,O=C(CSC1=NC2(CCCCCC2)N=C1c1ccccc1)Nc1ccc2c(c1)OCCO2,inconclusive: -44.3%
16,COc1cccc(-n2c(SCC(=O)NC3CCCCC3)nc3n[nH]c(C)c3c2=N)c1,inactive: 28%
17,CN(C)S(=O)(=O)c1ccc(NC(=O)CSc2nc3ccccc3n2-c2ccccc2)cc1,inconclusive: -48.9%
18,COc1ccc(Cl)cc1-c1nc(SCC(=O)NC2CC2)n[nH]1,inconclusive: -56.8%
19,Cc1cc(N2CCCC2=O)ccc1S(=O)(=O)Nc1c(C)nn(C)c1C,inconclusive: -48.2%
20,Clc1nssc1=Nc1ccc(Br)cc1,inconclusive: -43.2%
21,OC(c1ccccc1)(c1ccccc1)c1ccncc1,inconclusive: -41.4%
22,Cc1c(Cl)cccc1NC(=O)CN1C(=O)COc2ccc(S(=O)(=O)Nc3ccccc3)cc21,inconclusive: -58.2%
23,O=C(Cn1nnc2ccccc21)N/N=C\c1cccs1,inconclusive: -52%
24,CN1CCCC(n2nc(Cc3ccc(Cl)cc3)c3ccccc3c2=O)CC1 (stereo not given),inconclusive: -40.5%
25,CCC(C)Nc1c2c(nc3c(-c4ccccc4)c(C)nn13)CCC2 (stereo not given),inconclusive: -41.7%
26,CN(C)C(=O)c1ccc(NC(=O)c2cccc(S(=O)(=O)N3CCN(Cc4ccccc4)CC3)c2)cc1,inactive: 17.7%
27,O=C(O)c1ccc(Cl)c(S(=O)(=O)N(Cc2ccccc2)c2ccc(Cl)cc2)c1,inconclusive: -46%
